# Measurements: PubChem BioAssay (Tox21)
# Inconclusive results, whose numbers are uncertain, are shown with a selection of clear calls. A potency beside an inconclusive call is a rough fit, not a confirmed value. The source made the active and inactive calls. Calls come from the whole dose curve; as a rule, active = well fitted cell-killing curve with a large enough effect in the repeat runs; inconclusive = weak or mixed curves, or effect the other way; inactive = flat fitted curve, though single readings scatter.
# Experiment: cAMP Responsive Elements (CRE) small molecule agonists, cell-based qHTS assay: qHTS cell viability counter screen (AID 2060914); note: nearly all actives have a fitted effect of over 50% in size
# Conditions: CRE-bla HEK293T viability, CellTiter-Glo luminescence, 5 h; series mostly up to 92.4 µM; activity change, negative = cytotoxicity: at the top concentration
# Outline: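 In the same wells as the reporter read, viability of CRE-bla HEK 293T cells was quantified by CellTiter-Glo luminescence after a 3 h compound exposure.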
# % is set by controls: 0 for no effect and ±100 for the full control effect; potency is the fitted concentration of half-maximal effect.
SMILES,Potency,"activity change, negative = cytotoxicity"
COc1cc(Cl)ccc1Oc1ccc(Cl)cc1Cl,"inconclusive: 14.9 µM [cytotoxic, single point]",
CNCCC(Oc1ccc(C(F)(F)F)cc1)c1ccccc1 (configuration not stated),"inconclusive: 75.9 µM [cytotoxic, single point]",
O=C(Oc1ccccc1)c1ccccc1,inactive,
CC1(C)CC(OC(=O)CCCCCCCCC(=O)OC2CC(C)(C)NC(C)(C)C2)CC(C)(C)N1,,inactive: 1.68% [at 18.9 µM]
CCOC(=O)c1cc(=O)c2c(OCC(COc3cccc4oc(C(=O)OCC)cc(=O)c34)OC(=O)[C@@H](N)CCCCN)cccc2o1,"inconclusive: 0.266 µM [cytotoxic, single point]",
CNC(=O)NC,"inconclusive: 0.88 µM [cytotoxic, partial curve, poor fit]",
CC(C)CC(C)(N)C#N (configuration not stated),"inconclusive: 15.5 µM [cytotoxic, single point]",
COc1ccc2c(c1)c(CC(=O)O)c(C)n2C(=O)c1ccc(Cl)cc1,"inconclusive: 0.245 µM [cytotoxic, single point]",
C=Cc1cccc(C)c1,"inconclusive: 24.3 µM [rising, single point]",
COc1ccc(OC(=O)N(CC(=O)O)Cc2ccc(OCCc3nc(-c4ccccc4)oc3C)cc2)cc1,,inactive: 9.62% [at 42.5 µM]
COC(C)(C)CC(C)=O,"inconclusive: 2.73 µM [cytotoxic, single point]",
OCCN1CCN(CCCN2c3ccccc3Sc3ccc(C(F)(F)F)cc32)CC1,,inactive: -0.688% [at 42.5 µM]
O=C1Nc2ccccc2C1(c1ccc(O)cc1)c1ccc(O)cc1,"inconclusive: 61.1 µM [rising, single point]",
Nc1cccc2c(N)cccc12,"inconclusive: 2.17 µM [cytotoxic, partial curve, poor fit]",
O=C(O)CCCC[P+](c1ccccc1)(c1ccccc1)c1ccccc1,,inactive: 8.9% [at 42.5 µM]
COc1ccc(C(=O)Nc2ccccc2)cc1[N+](=O)[O-],,inactive: -4.31%
Cc1cc(C)cc(N)c1,,inactive: 7.9%
O=C(Nc1cccc([N+](=O)[O-])c1)c1cc2ccccc2cc1O,"inconclusive: 24.3 µM [cytotoxic, partial curve, poor fit]",
CC(C)(C)c1ccc(OC2CCCCC2O)cc1 (configuration not stated),"inconclusive: 61.1 µM [cytotoxic, single point]",
CC(C)C[C@H](NC(=O)[C@H](Cc1ccccc1)NC(=O)c1cnccn1)B(O)O,"inconclusive: 18.8 µM [cytotoxic, single point]",
OC1C(O)C(O)C(O)C(O)C1O (configuration not stated),"inconclusive: 16.8 µM [cytotoxic, single point]",
CC(=O)Nc1ccc(S(=O)(=O)Cl)cc1,"inconclusive: 1.37 µM [cytotoxic, single point]",
CCOC(=O)CC(C)C,"inconclusive: 6.86 µM [cytotoxic, single point]",
CCCC(=O)c1cc(O)c(O)cc1O,"inconclusive: 0.243 µM [cytotoxic, single point]",
CC1=C(/C=C/C(C)=C/C=C/C(C)=C/C(=O)O)C(C)(C)CCC1,"inconclusive: 30.6 µM [rising, full curve, poor fit]",
C=C(CC(=O)O)C(=O)O,inconclusive: 28.4 µM [cytotoxic],
C=C[Si]1(C)O[Si](C)(C=C)O[Si](C)(C=C)O[Si](C)(C=C)O1 (configuration not stated),,inactive: 0.0554%

# Some values from the results shown.
# In Potency, C=Cc1cccc(C)c1 is entered as inconclusive: 24.3 µM [rising, single point]
# In activity change, negative = cytotoxicity, COc1ccc(OC(=O)N(CC(=O)O)Cc2ccc(OCCc3nc(-c4ccccc4)oc3C)cc2)cc1 is entered as inactive: 9.62% [at 42.5 µM]
